Measured values reported in the supplement of paper PMC12370961.

Legend:
Test in all cases: differential drug sensitivity score (dDSS) relative to sarcoma reference cohort mean DSS (DSS units (0-100 scale difference)); higher = more selective sensitivity than reference sarcomas
Conditions in all cases: exposure time: 72 h; concentration range: 10-10000 nM
[1] = system: CDS-ZH001-2 (patient-derived CIC-DUX4 sarcoma tumoroid)
Procedure: (§1)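 Drug response profiling of patient-derived Ewing sarcoma and CIC::DUX4 sarcoma tumoroid models (or cells tested directly after isolation from the tumor, 'direct'). The DSS is the normalised AUC (0-100); dDSS is the sample DSS minus the mean DSS of a 34-sarcoma reference cohort profiled in the same lab.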

[2] = system: CDS-ZH001 (patient-derived CIC-DUX4 sarcoma tumoroid)
Procedure: as §1

[3] = system: CDS-ZH002 direct (CIC-DUX4 sarcoma cells right after isolation)
Procedure: as §1

[4] = system: CDS-ZH002 (patient-derived CIC-DUX4 sarcoma tumoroid)
Procedure: as §1

[5] = system: CDS-ZH003 (patient-derived CIC-DUX4 sarcoma tumoroid)
Procedure: as §1

[6] = system: ES-ZH001 (patient-derived Ewing sarcoma tumoroid)
Procedure: as §1

[7] = system: ES-ZH002 (patient-derived Ewing sarcoma tumoroid)
Procedure: as §1

[8] = system: ES-ZH004 (patient-derived Ewing sarcoma tumoroid)
Procedure: as §1

[9] = system: ES-ZH007 (patient-derived Ewing sarcoma tumoroid)
Procedure: as §1

[10] = system: ES-ZH008 (patient-derived Ewing sarcoma tumoroid)
Procedure: as §1

[11] = system: ES-ZH009 (patient-derived Ewing sarcoma tumoroid)
Procedure: as §1

[12] = system: ES-ZH016 direct (Ewing sarcoma cells right after isolation)
Procedure: as §1

[13] = system: ES-ZH016 (patient-derived Ewing sarcoma tumoroid)
Procedure: as §1

Structure (SMILES): Cc1ccc(C(=O)NCCCCCC(=O)Nc2ccccc2N)cc1 [RG2833]
- differential drug sensitivity score [1]: -1.5
- differential drug sensitivity score [2]: -1.4
- differential drug sensitivity score [3]: -0.9
- differential drug sensitivity score [4]: -1.6
- differential drug sensitivity score [5]: -1.3
- differential drug sensitivity score [6]: 1
- differential drug sensitivity score [7]: 2.8
- differential drug sensitivity score [8]: 1.7
- differential drug sensitivity score [9]: 1.8
- differential drug sensitivity score [10]: 3.5
- differential drug sensitivity score [11]: -0.6
- differential drug sensitivity score [12]: 3.5
- differential drug sensitivity score [13]: -0.2
